From US8193175B2, “Ruthenium complexes for treating cancers” (Universite de Strasbourg, priority 2004, dated 2012)
Some of these results come from one statement about several compounds together.

Experiments:
[1] = tested on: RDM4; assay: Apoptosis by marking with Annexin-V on RDM4; format: cell-based, mouse; settings: 45 μM, 48 hrs
Experimental: Cell death is measured by a first specific marking of the apoptosis. The externalisation of the anionic phospholipids, normally located on the inner layer of the plasmic membrane, is one of the precocious markers of apoptosis (Martin et al, 1996). Annexin-V is a protein which fixes specifically onto the phosphatidylserines in the presence of calcium. When Annexin-V is coupled to a fluorochrome, it makes it possible to quantify the apoptotic cells by flux cytometry.
The control cells are treated with the equivalent volume of solvent (ethanol). […] After 72 hrs, the apoptosis rate is still as low as that of the control cells. On the other hand, with treatment at 45 μM, this rate already reaches 70% at 24 hrs and exceeds 99% after 48 hrs—a sign of significant apoptosis induction.

[2] = tested on: RDM4; assay: DNA fragmentation by marking with propidium iodure on RDM4; format: cell-based, mouse; settings: 45 μM
From the text: A second specific marking of apoptosis is the fragmentation of DNA between the nucleosomes. The fragmented DNA is located in the apoptotic bodies in the terminal phase of apoptosis. This DNA is hypodiploid and so less in quantity than that present in normal cells. It can be quantified by flux cytometry after permeabilisation of the cell membranes and marking with PI. The quantity of DNA in a normal cell is 2n in the G0/G1 phase and 4n in the G2 phase. Therefore, the sub-G0 DNA in a quantity of less than 2n has a weaker fluorescence intensity.
This phenomenon tends to diminish after 48 hrs of treatment. On the other hand, when the cells are treated with 45 μM, the formation of hypodiploid particles, visualised by the sub-G0 DNA content, is less than 10% at 24 hrs and exceeds 50% at 48 hrs such as to reach 60% at 72 hrs. […] The quantity of hypodiploid particles in the control cells remains less than 4% over this same period.

[Ru(C6H4-2-C5H4N)(phen)(NCMe)2]PF6 [Compound 11]
apoptosis rate (Annexin-V) [1]: exceeds 99%
hypodiploid particles (sub-G0 DNA content) ([2]; 24 hrs): less than 10%
hypodiploid particles (sub-G0 DNA content) ([2]; 48 hrs): exceeds 50%
